The values that follow come from patent publication US20090143434A1 (priority 2007, published 2009).

Amino acid sequences for entries named in this document (tags omitted).
UniProt Q14524, whole entry: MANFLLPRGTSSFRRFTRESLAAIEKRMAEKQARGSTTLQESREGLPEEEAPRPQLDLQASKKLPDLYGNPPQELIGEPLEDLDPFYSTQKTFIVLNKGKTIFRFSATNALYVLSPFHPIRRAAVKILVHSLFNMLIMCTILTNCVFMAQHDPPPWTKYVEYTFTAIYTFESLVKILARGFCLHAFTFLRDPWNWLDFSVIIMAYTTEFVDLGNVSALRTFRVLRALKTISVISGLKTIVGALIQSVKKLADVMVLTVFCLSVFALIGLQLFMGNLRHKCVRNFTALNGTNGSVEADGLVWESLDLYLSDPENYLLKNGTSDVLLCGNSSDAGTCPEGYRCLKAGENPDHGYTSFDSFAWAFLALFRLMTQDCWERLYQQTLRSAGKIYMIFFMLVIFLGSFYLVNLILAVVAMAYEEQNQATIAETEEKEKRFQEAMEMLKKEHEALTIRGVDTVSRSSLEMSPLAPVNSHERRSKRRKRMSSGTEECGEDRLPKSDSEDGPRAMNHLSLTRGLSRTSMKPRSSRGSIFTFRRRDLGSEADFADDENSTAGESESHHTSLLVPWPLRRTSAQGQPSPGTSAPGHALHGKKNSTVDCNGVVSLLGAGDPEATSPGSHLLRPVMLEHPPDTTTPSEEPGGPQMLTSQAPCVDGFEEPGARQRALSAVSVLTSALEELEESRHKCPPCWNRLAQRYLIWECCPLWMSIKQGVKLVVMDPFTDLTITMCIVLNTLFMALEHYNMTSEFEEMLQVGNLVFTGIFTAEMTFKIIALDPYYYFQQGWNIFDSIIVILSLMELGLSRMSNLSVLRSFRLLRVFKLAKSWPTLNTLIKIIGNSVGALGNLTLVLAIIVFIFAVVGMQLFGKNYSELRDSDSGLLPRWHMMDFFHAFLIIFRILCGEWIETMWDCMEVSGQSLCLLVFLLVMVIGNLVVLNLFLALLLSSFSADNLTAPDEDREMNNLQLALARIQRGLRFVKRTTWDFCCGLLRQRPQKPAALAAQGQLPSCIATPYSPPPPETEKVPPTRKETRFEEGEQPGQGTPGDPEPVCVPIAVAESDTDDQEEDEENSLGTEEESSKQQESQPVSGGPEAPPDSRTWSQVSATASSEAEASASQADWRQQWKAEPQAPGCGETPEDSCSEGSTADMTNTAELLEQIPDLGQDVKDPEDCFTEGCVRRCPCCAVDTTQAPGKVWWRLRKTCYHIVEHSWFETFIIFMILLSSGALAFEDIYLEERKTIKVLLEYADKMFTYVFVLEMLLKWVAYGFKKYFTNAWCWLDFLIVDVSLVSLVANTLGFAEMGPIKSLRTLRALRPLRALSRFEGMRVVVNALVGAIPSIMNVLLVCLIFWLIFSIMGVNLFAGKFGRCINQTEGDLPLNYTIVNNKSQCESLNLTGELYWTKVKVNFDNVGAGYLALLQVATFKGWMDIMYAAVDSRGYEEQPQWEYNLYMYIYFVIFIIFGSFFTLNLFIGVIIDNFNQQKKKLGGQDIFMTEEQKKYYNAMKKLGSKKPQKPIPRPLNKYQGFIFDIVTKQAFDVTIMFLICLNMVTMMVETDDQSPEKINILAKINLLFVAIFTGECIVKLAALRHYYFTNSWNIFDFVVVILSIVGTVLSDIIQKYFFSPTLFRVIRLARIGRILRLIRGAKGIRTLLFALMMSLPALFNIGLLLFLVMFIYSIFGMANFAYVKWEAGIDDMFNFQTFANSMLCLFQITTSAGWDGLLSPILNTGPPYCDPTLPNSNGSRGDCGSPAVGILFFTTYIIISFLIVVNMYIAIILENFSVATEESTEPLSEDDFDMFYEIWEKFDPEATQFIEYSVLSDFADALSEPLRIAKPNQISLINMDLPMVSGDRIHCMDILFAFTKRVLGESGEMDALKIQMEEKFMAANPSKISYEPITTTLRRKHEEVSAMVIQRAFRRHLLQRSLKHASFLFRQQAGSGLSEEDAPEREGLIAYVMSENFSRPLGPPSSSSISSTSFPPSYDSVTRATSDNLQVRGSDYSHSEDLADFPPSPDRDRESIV
UniProt Q13936, whole entry: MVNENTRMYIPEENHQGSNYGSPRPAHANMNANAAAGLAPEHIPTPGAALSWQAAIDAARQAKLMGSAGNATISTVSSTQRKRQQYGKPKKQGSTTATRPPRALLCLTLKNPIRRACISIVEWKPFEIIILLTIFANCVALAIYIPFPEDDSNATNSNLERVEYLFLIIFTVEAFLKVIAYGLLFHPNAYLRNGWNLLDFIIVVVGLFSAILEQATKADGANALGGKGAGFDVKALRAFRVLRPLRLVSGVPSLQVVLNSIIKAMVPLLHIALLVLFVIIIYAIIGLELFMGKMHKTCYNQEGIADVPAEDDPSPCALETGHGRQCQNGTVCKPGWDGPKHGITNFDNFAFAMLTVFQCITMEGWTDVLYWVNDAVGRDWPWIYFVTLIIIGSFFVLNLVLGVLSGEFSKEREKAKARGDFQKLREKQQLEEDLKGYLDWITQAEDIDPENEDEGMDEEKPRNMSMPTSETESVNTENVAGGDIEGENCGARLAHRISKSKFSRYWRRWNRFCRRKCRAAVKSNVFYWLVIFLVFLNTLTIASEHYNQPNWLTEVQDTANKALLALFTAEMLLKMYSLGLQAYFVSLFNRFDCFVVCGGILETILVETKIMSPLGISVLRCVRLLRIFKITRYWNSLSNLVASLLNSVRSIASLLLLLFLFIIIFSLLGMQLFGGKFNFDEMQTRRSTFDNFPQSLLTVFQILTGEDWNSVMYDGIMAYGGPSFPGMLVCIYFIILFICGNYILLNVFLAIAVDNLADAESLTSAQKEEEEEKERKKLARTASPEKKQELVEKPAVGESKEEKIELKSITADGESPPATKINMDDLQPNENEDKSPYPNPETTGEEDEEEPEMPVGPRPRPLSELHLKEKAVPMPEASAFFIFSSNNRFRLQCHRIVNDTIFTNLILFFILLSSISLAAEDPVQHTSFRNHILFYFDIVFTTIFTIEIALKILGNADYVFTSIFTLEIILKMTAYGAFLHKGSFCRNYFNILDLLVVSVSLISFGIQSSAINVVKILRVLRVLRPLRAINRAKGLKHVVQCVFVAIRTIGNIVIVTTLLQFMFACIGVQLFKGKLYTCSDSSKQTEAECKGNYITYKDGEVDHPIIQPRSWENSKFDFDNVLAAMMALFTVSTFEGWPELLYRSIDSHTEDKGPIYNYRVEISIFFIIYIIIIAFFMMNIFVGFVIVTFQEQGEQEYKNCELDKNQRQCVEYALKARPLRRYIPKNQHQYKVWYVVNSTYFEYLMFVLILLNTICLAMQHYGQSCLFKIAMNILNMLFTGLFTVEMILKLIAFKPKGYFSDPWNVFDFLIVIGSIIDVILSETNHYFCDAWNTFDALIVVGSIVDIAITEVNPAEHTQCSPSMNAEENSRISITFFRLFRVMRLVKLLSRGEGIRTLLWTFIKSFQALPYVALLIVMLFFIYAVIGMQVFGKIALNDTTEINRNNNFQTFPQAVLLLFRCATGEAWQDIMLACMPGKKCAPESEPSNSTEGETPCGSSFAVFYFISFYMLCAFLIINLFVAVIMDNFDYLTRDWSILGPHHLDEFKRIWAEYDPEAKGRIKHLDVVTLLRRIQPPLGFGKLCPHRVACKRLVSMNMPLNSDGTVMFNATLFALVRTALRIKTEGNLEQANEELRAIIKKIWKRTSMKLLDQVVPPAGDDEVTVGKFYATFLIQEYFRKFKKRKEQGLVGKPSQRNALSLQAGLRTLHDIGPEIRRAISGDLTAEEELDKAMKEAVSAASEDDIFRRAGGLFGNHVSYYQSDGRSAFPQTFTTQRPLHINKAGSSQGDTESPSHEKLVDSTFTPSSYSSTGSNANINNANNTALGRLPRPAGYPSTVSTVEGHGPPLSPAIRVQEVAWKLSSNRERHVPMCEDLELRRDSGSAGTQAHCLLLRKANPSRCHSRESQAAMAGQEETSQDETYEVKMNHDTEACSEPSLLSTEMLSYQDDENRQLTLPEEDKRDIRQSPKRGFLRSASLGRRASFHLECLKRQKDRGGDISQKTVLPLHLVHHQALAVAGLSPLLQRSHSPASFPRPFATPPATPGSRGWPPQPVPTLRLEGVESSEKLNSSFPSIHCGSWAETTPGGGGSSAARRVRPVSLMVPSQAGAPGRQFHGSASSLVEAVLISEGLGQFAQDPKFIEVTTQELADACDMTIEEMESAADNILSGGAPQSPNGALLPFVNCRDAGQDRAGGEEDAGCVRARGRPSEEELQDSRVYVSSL

Where two headings read alike, the source gives them in different places.

As a reminder, the IC50 is the concentration needed to halve the response being measured.

In one assay the target is hNav1.5 (Homo sapiens, UniProt Q14524). Put plainly: voltage clamp currents in mammalian cells stably transfected with cloned ion channel cDNA, hNav1.5. The class given is cell-based. From the text: (§1) Nonlinear least squares fits of the current ratio data yielded the best fit value for the IC50 concentration. A positive control was included for each channel tested in the study.

In the next assay the target is hCav1.2 (Homo sapiens, UniProt Q13936). Put plainly: voltage clamp currents in mammalian cells stably transfected with cloned ion channel cDNA, hCav1.2. The assay is classed as cell-based.
Source text: as §1

Setting [1] is: 0.1 Hz, read-out: Estimated IC50 at 0.1 Hz.
[2] abbreviates: 3 Hz, read-out: Estimated IC50 at 3 Hz.

For the molecule `O=c1[nH]c2ccccc2n1CCCN1CCC(n2c(=O)[nH]c3cc(Cl)ccc32)CC1` [domperidone, 1,3-dihydro-5-chloro-1-(1-(3-(2,3-dihydro-2-oxo-1H-benzimidazol-1-yl)propyl)-4-piperidinyl)-2H-benzimidazol-2-one], the IC50 is 41.8 µM at hNav1.5 (setting [1]), 3.2 µM at hNav1.5 (setting [2]), 101 µM at hCav1.2 (setting [1]) and 1.01 µM on hCav1.2 (setting [2]).
